Results are given in words; binding and its absence hold for the method and conditions named. In cells and extracts the contact can be indirect. Some binding calls cover weakened binding; strength is not graded here.
Legend:
[1] = biological target: SQSTM/p62 (p62) (human (endogenous in ACHN)) (UniProt Q13501); experiment: co-IP; endogenous proteins; ACHN cells exposed to DMSO or rasfonin (6 or 12 μM) for 6 h; lysed in Triton X-100/glycerol buffer; immunoprecipitated with mouse monoclonal antibodies of Grb2, p62, EGFR or RIP1 over 3 h at 4 °C, Protein A- or Protein G-Sepharose 1 h; immunoblot
[2] = biological target: receptor-interacting serine/threonine kinase 1 (RIP1) (human (endogenous in ACHN)) (UniProt Q13546); experiment: as above
[3] = biological target: Growth factor receptor bound protein 2 (Grb2) (human (endogenous in ACHN)) (UniProt P62993); experiment: as above
[4] = biological target: epidermal growth factor receptor (EGFR) (human (endogenous in ACHN)) (UniProt P00533); experiment: as above
[5] = biological target: SQSTM/p62 (p62) (human (endogenous in ACHN)) (UniProt Q13501); experiment: condition: only cells not treated with 12 μM rasfonin; co-IP; as a1, immunoprecipitation with the p62 antibody, from ACHN cells not treated with 12 μM rasfonin (DMSO control or 6 μM rasfonin)

Amino acid sequences for entries named in this document (tags omitted).
UniProt Q13546: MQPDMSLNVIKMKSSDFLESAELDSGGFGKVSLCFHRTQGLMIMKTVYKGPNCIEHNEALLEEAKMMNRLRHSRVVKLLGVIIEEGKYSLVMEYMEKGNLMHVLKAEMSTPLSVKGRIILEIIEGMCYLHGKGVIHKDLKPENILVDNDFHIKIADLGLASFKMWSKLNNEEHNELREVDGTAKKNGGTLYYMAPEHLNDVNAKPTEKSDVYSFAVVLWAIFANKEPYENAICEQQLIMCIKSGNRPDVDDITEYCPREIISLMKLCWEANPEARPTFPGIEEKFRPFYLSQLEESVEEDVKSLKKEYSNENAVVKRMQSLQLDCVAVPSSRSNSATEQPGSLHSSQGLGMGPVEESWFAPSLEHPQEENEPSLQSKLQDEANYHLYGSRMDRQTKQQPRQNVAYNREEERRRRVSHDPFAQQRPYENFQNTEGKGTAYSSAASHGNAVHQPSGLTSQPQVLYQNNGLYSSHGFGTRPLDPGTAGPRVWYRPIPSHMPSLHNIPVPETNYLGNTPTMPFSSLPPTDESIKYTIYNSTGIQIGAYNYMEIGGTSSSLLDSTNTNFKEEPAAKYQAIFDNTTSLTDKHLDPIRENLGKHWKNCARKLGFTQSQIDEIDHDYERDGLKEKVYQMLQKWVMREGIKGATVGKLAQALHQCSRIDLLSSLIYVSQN

## Growth factor receptor bound protein 2 (Grb2) (from UniProt P62993 1-217)
[1]
  binding: binds
[2]
  binding: binds

## SQSTM/p62 (p62) (from UniProt Q13501 1-440)
[3]
  binding: binds
[4]
  binding: binds
[2]
  binding: binds

## epidermal growth factor receptor (EGFR) (from UniProt P00533 25-1210)
[5]
  binding: no binding
[1]
  binding: binds
[2]
  binding: binds

## receptor-interacting serine/threonine kinase 1 (RIP1) (from UniProt Q13546 1-671)
[5]
  binding: no binding
[3]
  binding: binds
[1]
  binding: binds
